Measurements from PubChem BioAssay AID276 (DTP/NCI, 2004).
The list shows only some results of the screen, not a fair sample: it covers a few groups of compounds. Other doses and runs of a compound may be missing. T/C gives the treated animals as a percentage of the vehicle group. Some doses have a count of surviving animals in place of a T/C: the source holds a T/C of zero for them, seemingly a mark for toxic or unscored doses. Some survivor counts are full or nearly so, which does not show that the dose was tolerated: survival well below the control is almost never listed, so the zero probably covers shortened survival too. Counts of survivors are from the toxicity check (mostly the fifth day) where no day follows; animals may have died later. Schedule codes are those of the source, read here as Q, the interval in days (D) or hours (H), X, the number of doses. Some entries were tested several times; their values stand side by side, smallest first. Where survival is the endpoint, the PubChem record calls one and a half times the control and up active, and a quarter to a half above the control has no call in these data; cut-offs in other NCI protocols can differ. Some T/C values carry the count of animals alive at the toxicity check (mostly the fifth day); without a count or a note in brackets, all were alive then.

System: B6C3F1 mice, Lewis lung carcinoma iv, survival T/C
Assay: NCI In Vivo Anticancer Drug Screen. Data for tumor model Lewis Lung Carcinoma (intravenous) in B6C3F1 mice
Conditions: T/C endpoint: median survival time, higher T/C = longer survival
Method: The antitumor activity of compounds was measured in mice bearing transplantable tumors. Survival or tumor size were measured and the results are expressed as the measurement made in the treated group (T) divided by the measurement made in the vehicle treated control group (C). The tumor model used in this assay is Lewis Lung Carcinoma (intravenous) in B6C3F1 mice

[1] = dose: 50.0 mg/kg/injection, schedule: Q01DX009 (ip), vehicle: distilled water + Tween-80
[2] = dose: 200.0 mg/kg/injection, schedule: Q01DX001 (ip), vehicle: water
[3] = dose: 400.0 mg/kg/injection, schedule: Q01DX001 (ip), vehicle: water

With `NC1CCCCC1.NP(=O)(O)N(CCCl)CCCl` the T/C (dose: 6.25 mg/kg/injection, schedule: Q01DX009 (ip), vehicle: distilled water + Tween-80) was 105 [9 of 10 alive] and 121 % of control, the T/C (dose: 12.5 mg/kg/injection, schedule: Q01DX009 (ip), vehicle: distilled water + Tween-80) was 102 [9 of 10 alive] and 126 % of control and the T/C (dose: 25.0 mg/kg/injection, schedule: Q01DX001 (ip), vehicle: water) was 113 % of control. For the same molecule, the T/C (dose: 25.0 mg/kg/injection, schedule: Q01DX009 (ip), vehicle: distilled water + Tween-80) was 110 [9 of 10 alive] and 117 % of control, the T/C (dose: 50.0 mg/kg/injection, schedule: Q01DX001 (ip), vehicle: water) was 100 and 128 % of control and the T/C [1] was 133 % of control. The survivor count [1] was 10 of 10, the T/C (dose: 100.0 mg/kg/injection, schedule: Q01DX001 (ip), vehicle: water) was 125, 140, 154 % of control and the survivor count (dose: 100.0 mg/kg/injection, schedule: Q01DX009 (ip), vehicle: distilled water + Tween-80) was 10 of 10. For the same molecule, the T/C [2] was 108 and 142 % of control, the survivor count [2] was 9 of 10 and the T/C [3] was 196 % of control. For the same molecule, the survivor count [3] was 0 of 10 and 10 of 10 and the survivor count (dose: 800.0 mg/kg/injection, schedule: Q01DX001 (ip), vehicle: water) was 0 of 10 and 10 of 10.
With `O=NN(CCSCCCl)C(=O)NC1CCCCC1` the T/C (dose: 0.19 mg/kg/injection, schedule: Q01DX009 (ip), vehicle: saline with Tween-80) was 104 % of control, the T/C (dose: 0.39 mg/kg/injection, schedule: Q01DX009 (ip), vehicle: saline with Tween-80) was 104 % of control and the T/C (dose: 0.78 mg/kg/injection, schedule: Q01DX009 (ip), vehicle: saline with Tween-80) was 105 % of control. For the same molecule, the T/C (dose: 1.56 mg/kg/injection, schedule: Q01DX009 (ip), vehicle: saline with Tween-80) was 110 % of control, the T/C (dose: 3.12 mg/kg/injection, schedule: Q01DX009 (ip), vehicle: saline with Tween-80) was 106 % of control and the T/C (dose: 6.25 mg/kg/injection, schedule: Q01DX009 (ip), vehicle: saline with Tween-80) was 105 % of control.
With `ClCCN(CCCl)c1ccccc1` the T/C (dose: 3.12 mg/kg/injection, schedule: Q01DX009 (ip), vehicle: Klucel (hydroxypropylcellulose) (HPC)) was 103 % of control, the T/C (dose: 6.25 mg/kg/injection, schedule: Q01DX009 (ip), vehicle: Klucel (hydroxypropylcellulose) (HPC)) was 115 % of control and the T/C (dose: 12.5 mg/kg/injection, schedule: Q01DX009 (ip), vehicle: Klucel (hydroxypropylcellulose) (HPC)) was 135 % of control. For the same molecule, the T/C (dose: 25.0 mg/kg/injection, schedule: Q01DX009 (ip), vehicle: Klucel (hydroxypropylcellulose) (HPC)) was 130 % of control, the survivor count (dose: 50.0 mg/kg/injection, schedule: Q01DX009 (ip), vehicle: Klucel (hydroxypropylcellulose) (HPC)) was 10 of 10 and the survivor count (dose: 100.0 mg/kg/injection, schedule: Q01DX009 (ip), vehicle: Klucel (hydroxypropylcellulose) (HPC)) was 2 of 10.
